Data source: PubChem BioAssay AID504774 (Drosophila RNAi Screening Center, 2011)
The screen tested about 23,000 reagents; this is an unselected part of those that have a named target and a result. 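Values are quantile-normalised luminescence on an arbitrary scale; higher means more cells surviving MMS.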

- Aim: 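Genes required for cells to withstand methyl methanesulphonate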 (primary screen)
- Cells: Drosophila Kc167 cells
- Knock-down reagent: long dsRNA against Drosophila genes, about 0.25 µg dsRNA per well
- Timing: about 6 days: 3 days knock-down, then 3 days with or without MMS
- Treatment: methyl methanesulphonate 0.004% (w/v) for 3 days after knock-down
- Measured: 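Viability in wells given MMS, read as ATP luminescence, normalised by quantiles plate by plate and averaged across replicates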
- Reading the numbers: mean viability with MMS and viability with MMS: higher = more surviving cells after MMS

Target gene | dsRNA | mean viability with MMS | viability with MMS, replicate 1 | viability with MMS, replicate 2
CG4592 | DRSC02761 | 3.99e6 | 4.47e6 | 4.68e6
CG16953 | DRSC15167 | 3.51e6 | 3.97e6 | 4.00e6
Nazo | DRSC14343 | 3.42e6 | 3.85e6 | 3.92e6
TppII (Tripeptidyl-peptidase II) | DRSC07565 | 3.30e6 | 3.76e6 | 3.72e6
CG2931 | DRSC12324 | 3.75e6 | 4.25e6 | 4.20e6
140up (upstream of RpII140) | DRSC12634 | 3.52e6 | 3.99e6 | 3.97e6
RacGAP84C (Rac GTPase activating protein at 84C) | DRSC12630 | 3.50e6 | 3.98e6 | 3.97e6
spd-2 (spindle defective 2) | DRSC09682 | 3.38e6 | 3.77e6 | 3.87e6
CG14354 | DRSC14817 | 3.44e6 | 3.84e6 | 3.93e6
CG30103 | DRSC06894 | 3.63e6 | 4.05e6 | 4.16e6
Ref1 (RNA and export factor binding protein 1) | DRSC12497 | 3.59e6 | 4.05e6 | 4.13e6
Ref1 (RNA and export factor binding protein 1) | DRSC22387 | 3.04e6 | 3.71e6 | 3.87e6
Atg101 (Autophagy-related 101) | DRSC20020 | 3.54e6 | 4.15e6 | 3.89e6
mRpL20 (mitochondrial ribosomal protein L20) | DRSC09828 | 3.78e6 | 4.20e6 | 4.28e6
CG12990 | DRSC19510 | 3.58e6 | 4.07e6 | 4.04e6
VhaPPA1-2 (Vacuolar H[+] ATPase PPA1 subunit 2) | DRSC16176 | 3.57e6 | 3.86e6 | 4.26e6
alpha-Est5 (alpha-Esterase-5) | DRSC12617 | 3.46e6 | 3.95e6 | 3.87e6
zen2 (zerknullt-related) | DRSC12633 | 3.60e6 | 4.20e6 | 3.97e6
dgt4 (dim gamma-tubulin 4) | DRSC18659 | 3.69e6 | 4.25e6 | 4.13e6
Hmgcr (HMG Coenzyme A reductase) | DRSC16704 | 3.40e6 | 3.83e6 | 3.81e6
CG31686 (retired record) | DRSC00102 | 3.50e6 | 4.13e6 | 3.84e6
CG33341 | DRSC22887 | 3.41e6 | 3.94e6 | 3.89e6
CG10365 | DRSC14234 | 3.76e6 | 4.30e6 | 4.21e6
prg (piragua) | DRSC03324 | 3.51e6 | 4.34e6 | 3.64e6
EndoA (Endophilin A) | DRSC14775 | 3.41e6 | 3.92e6 | 3.82e6
CG5986 | DRSC15931 | 3.50e6 | 3.94e6 | 4.00e6
CG14684 | DRSC14907 | 3.64e6 | 4.09e6 | 4.10e6
CG30431 | DRSC04902 | 3.53e6 | 4.07e6 | 4.01e6
CG30431 | DRSC04904 | 3.54e6 | 4.11e6 | 3.94e6
wal (walrus) | DRSC07717 | 3.71e6 | 4.25e6 | 4.16e6
CG44251 | DRSC06856 | 3.62e6 | 4.09e6 | 4.10e6
CG4830 | DRSC15657 | 3.43e6 | 3.90e6 | 3.92e6
Vps15 (Vacuolar protein sorting 15) | DRSC16553 | 3.78e6 | 4.32e6 | 4.25e6
GstE1 (Glutathione S transferase E1) | DRSC07437 | 3.78e6 | 4.15e6 | 4.34e6
Nup188 (Nucleoporin 188kDa) | DRSC21830 | 3.19e6 | 3.73e6 | 3.75e6
Xpc (Xeroderma pigmentosum, complementation group C) | DRSC07654 | 3.40e6 | 4.02e6 | 3.72e6
bam (bag of marbles) | DRSC16907 | 3.60e6 | 4.05e6 | 4.12e6
CG5265 | DRSC15756 | 3.54e6 | 4.13e6 | 3.92e6
scaf6 (SR-related CTD associated factor 6) | DRSC10075 | 3.60e6 | 4.07e6 | 4.08e6
scaf6 (SR-related CTD associated factor 6) | DRSC10676 | 3.31e6 | 3.75e6 | 3.68e6
scaf6 (SR-related CTD associated factor 6) | DRSC10678 | 3.22e6 | 3.67e6 | 3.63e6
CG12347 | DRSC14502 | 3.65e6 | 4.23e6 | 4.04e6
Mtch | DRSC08679 | 3.50e6 | 3.97e6 | 3.96e6
CG14017 | DRSC02348 | 3.54e6 | 3.96e6 | 4.06e6
Fak (Focal adhesion kinase) | DRSC07426 | 3.56e6 | 3.84e6 | 4.22e6
mah (mahogany) | DRSC14645 | 3.58e6 | 4.13e6 | 3.98e6

A few values from above.
Under “mean viability with MMS”, mRpL20 (mitochondrial ribosomal protein L20) [DRSC09828] reads 3.78e6
For “mean viability with MMS”, CG30103 [DRSC06894] has 3.63e6
Entry of VhaPPA1-2 (Vacuolar H[+] ATPase PPA1 subunit 2) [DRSC16176] under “viability with MMS, replicate 2”: 4.26e6
spd-2 (spindle defective 2) [DRSC09682], viability with MMS, replicate 2: 3.87e6
Atg101 (Autophagy-related 101) [DRSC20020], viability with MMS, replicate 1 → 4.15e6
Under “viability with MMS, replicate 1”, prg (piragua) [DRSC03324] has 4.34e6
